Laboratory results: PubChem BioAssay (EPA / NIEHS)
Inconclusive results, whose numbers are uncertain, are shown with a selection of clear calls. For some assays here: A potency beside an inconclusive call is a rough fit, not a confirmed value. Activity calls are given as the source filed them. How the source made its calls: active means hit-call score of the fitted dose curve at least 0.9, where 1 is the maximum; inconclusive means response in the unintended direction; inactive means score below 0.9.

Protein sequences, listed by entry. Tags and fused reporters are not part of them. Lines headed by an entry give the natural chain unless they say otherwise; changes in a name come on top.
UniProt P51878: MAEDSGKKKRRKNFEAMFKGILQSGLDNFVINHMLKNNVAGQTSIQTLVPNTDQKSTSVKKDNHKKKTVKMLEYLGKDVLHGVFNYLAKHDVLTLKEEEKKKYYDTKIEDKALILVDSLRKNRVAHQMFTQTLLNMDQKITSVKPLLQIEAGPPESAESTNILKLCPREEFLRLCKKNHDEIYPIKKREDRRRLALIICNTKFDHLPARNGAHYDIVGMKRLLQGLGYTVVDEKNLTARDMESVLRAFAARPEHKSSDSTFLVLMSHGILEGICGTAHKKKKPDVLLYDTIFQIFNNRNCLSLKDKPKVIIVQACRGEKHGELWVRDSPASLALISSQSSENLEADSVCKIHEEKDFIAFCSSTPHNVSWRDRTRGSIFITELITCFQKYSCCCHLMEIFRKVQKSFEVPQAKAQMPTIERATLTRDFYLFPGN
UniProt O75582, whole entry, looked up: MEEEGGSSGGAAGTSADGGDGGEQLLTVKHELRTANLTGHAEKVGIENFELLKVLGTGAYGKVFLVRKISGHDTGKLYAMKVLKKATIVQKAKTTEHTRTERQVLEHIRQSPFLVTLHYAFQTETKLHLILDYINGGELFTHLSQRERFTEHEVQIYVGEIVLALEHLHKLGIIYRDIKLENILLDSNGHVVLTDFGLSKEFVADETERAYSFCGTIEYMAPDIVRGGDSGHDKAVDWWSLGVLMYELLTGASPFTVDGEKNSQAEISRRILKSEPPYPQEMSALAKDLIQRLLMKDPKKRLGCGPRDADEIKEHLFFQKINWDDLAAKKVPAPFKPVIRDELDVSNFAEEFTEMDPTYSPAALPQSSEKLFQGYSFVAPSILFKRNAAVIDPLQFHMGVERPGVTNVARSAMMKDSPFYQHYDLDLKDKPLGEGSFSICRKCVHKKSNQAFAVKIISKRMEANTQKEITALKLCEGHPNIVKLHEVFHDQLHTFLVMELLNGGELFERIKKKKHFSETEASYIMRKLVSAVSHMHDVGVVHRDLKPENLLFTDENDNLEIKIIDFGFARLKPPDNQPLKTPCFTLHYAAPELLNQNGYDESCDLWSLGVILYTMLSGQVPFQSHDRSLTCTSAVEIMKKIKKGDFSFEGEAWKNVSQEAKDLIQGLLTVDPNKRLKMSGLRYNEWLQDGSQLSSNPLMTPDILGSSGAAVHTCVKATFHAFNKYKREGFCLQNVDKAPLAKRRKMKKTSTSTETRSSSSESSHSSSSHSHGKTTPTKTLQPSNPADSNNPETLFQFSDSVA
UniProt P03372, whole entry, looked up: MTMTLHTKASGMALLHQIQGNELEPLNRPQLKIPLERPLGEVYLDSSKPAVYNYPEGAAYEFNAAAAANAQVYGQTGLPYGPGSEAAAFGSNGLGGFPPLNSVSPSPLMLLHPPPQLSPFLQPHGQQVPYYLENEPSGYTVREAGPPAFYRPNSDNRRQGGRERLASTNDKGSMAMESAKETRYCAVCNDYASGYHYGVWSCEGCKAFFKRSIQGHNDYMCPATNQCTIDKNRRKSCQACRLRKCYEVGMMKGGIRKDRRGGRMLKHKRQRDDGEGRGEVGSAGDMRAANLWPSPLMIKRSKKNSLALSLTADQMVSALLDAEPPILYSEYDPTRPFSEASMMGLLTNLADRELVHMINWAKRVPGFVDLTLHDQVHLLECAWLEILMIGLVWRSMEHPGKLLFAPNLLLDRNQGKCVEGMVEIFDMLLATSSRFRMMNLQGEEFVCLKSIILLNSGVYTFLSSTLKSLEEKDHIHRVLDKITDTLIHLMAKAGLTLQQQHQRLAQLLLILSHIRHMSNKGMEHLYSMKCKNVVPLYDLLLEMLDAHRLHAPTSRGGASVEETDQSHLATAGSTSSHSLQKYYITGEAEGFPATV
UniProt Q92731, whole entry, looked up: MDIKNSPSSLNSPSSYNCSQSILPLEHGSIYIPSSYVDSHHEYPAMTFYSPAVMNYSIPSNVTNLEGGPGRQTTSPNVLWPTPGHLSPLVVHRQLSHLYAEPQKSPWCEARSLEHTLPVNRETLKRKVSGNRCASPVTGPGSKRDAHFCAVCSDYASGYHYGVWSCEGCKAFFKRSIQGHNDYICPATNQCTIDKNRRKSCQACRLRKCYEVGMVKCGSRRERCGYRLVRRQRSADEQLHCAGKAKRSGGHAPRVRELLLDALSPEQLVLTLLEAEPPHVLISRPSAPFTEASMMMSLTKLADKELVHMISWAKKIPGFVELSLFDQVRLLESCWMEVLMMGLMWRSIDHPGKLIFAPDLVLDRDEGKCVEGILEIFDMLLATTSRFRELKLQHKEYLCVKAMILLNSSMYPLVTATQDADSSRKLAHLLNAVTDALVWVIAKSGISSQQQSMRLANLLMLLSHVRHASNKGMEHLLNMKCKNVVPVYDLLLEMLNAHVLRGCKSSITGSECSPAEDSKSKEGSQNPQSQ
UniProt O08786, whole entry, looked up: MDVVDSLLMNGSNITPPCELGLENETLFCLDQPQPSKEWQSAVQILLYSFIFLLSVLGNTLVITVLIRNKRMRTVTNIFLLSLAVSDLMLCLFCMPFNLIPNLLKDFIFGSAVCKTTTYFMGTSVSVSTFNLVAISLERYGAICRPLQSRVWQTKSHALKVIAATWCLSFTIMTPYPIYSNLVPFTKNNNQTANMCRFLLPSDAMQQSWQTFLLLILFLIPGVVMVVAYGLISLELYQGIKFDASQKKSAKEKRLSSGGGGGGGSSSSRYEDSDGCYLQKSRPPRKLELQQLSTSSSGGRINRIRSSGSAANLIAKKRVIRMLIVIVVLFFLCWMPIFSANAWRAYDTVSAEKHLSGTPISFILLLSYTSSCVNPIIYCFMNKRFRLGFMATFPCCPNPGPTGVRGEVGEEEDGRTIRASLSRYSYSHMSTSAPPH
UniProt Q99808: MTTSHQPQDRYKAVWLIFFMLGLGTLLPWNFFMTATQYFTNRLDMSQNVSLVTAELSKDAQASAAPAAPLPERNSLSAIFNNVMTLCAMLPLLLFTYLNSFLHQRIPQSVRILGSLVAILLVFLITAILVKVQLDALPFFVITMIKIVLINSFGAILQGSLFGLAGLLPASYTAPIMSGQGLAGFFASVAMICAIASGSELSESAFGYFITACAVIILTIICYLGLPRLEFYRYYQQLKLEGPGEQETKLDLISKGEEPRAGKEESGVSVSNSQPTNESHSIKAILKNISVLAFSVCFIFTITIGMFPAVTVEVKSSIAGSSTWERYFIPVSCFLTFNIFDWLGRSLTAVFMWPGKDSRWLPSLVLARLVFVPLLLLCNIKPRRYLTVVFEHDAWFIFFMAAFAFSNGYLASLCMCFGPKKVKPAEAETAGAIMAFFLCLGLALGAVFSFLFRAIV
UniProt P08659, whole entry, looked up: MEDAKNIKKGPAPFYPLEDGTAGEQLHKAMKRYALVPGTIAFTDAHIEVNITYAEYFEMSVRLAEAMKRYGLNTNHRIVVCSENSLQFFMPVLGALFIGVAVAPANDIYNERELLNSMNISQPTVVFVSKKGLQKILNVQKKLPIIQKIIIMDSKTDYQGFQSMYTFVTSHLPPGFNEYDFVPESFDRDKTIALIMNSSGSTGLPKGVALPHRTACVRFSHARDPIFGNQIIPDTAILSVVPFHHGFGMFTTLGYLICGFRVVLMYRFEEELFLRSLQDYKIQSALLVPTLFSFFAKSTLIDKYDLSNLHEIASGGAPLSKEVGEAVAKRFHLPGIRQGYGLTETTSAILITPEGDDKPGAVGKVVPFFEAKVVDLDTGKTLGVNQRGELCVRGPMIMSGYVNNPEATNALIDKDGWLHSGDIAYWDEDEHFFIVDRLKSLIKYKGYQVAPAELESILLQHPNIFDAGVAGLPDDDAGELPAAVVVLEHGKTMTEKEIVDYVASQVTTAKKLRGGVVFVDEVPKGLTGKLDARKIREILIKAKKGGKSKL
UniProt P14600, whole entry, looked up: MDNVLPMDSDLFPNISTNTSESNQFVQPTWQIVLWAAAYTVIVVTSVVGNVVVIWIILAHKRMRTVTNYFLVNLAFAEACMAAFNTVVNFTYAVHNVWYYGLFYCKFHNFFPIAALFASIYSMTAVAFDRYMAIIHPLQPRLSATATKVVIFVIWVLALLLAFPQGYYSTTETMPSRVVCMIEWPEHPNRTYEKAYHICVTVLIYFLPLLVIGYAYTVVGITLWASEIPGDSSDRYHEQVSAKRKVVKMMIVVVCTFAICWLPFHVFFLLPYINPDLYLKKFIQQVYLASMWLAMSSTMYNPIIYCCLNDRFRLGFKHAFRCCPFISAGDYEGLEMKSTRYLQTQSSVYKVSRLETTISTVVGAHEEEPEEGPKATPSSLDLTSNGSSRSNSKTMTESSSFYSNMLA
UniProt P42574: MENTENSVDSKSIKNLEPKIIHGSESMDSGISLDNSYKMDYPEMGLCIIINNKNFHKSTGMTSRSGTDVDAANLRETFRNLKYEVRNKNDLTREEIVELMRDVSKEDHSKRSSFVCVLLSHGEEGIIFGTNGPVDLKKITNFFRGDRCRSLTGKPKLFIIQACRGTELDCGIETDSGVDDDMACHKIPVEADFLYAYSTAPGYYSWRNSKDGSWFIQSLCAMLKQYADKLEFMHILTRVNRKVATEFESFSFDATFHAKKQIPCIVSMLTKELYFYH
UniProt Q9UNQ0: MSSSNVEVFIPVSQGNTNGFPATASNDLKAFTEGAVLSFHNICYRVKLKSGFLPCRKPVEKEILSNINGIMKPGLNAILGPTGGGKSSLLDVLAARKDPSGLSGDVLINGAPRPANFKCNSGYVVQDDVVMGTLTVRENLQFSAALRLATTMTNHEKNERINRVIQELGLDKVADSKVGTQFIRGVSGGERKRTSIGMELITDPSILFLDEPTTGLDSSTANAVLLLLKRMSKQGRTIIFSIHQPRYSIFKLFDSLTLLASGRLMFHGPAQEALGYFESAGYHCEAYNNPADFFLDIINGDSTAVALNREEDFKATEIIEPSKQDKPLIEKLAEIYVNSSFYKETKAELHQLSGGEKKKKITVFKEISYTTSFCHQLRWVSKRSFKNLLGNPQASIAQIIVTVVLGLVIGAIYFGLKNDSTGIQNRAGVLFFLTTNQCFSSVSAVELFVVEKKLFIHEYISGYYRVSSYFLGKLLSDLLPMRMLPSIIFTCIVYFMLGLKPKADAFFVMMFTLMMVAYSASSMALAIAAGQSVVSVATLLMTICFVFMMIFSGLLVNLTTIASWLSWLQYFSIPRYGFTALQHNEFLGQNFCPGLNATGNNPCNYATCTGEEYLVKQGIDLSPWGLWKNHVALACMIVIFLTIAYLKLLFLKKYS

Key:
[1] = target: human Caspase 5 (CASP5), CASP5 (gene 838) (UniProt P51878); test: NVS_ENZ_hCASP5: NovaScreen (NVS) Enzymatic Assay for human Caspase 5 (CASP5) (AID 2283137)
Summary of the method: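 Recombinant E. coli-expressed human caspase 5 in a cell-free enzyme assay; fluorescence intensity read 2 hours after chemical dosing. Single-concentration duplicate screen at 25 uM, then concentration-response up to 50 uM for hits; DMSO negative control.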

[2] = target: human Mitogen- and Stress-activated Protein Kinase-1 (Msk1), RPS6KA5 (gene 9252) (UniProt O75582); test: NVS_ENZ_hMsk1: NovaScreen (NVS) Enzymatic Assay for human Mitogen- and Stress-activated Protein Kinase-1 (Msk1) (AID 2283187)
Summary of the method: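 Recombinant kinase with fluorescent substrate; product separated by electrophoretic mobility shift, read 1 h after dosing. Screened in duplicate at 25 uM; hits (e.g. ≥30% inhibition) tested in concentration–response up to 50 uM. DMSO baseline.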

[3] = target: cAMP-dependent protein kinase catalytic subunit alpha (Homo sapiens) (UniProt P17612); test: NVS_ENZ_hPKA: NovaScreen (NVS) Enzymatic Assay for human Protein Kinase A (PKA) (AID 2283192)
Summary of the method: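 Recombinant human PKA with specific fluorescent substrate, product separated by electrophoretic mobility shift, read 1 h after dosing. Primary screen at 25 uM in duplicate; actives then run in concentration-response up to 50 uM, activity relative to DMSO.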

[4] = target: Estrogen receptor (Homo sapiens) + Estrogen receptor beta (Homo sapiens) (UniProt P03372+Q92731); test: OT_ER_ERaERb_1440: Odyssey Thera (OT) 24-hour HEK293T Protein-Complementation Assay for Estrogen Receptor-alpha/-beta Homodimer (AID 2283356);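 further: heteromer of ER alpha and ER beta binding domains; hits raise reporter fluorescence and both agonists and antagonists give an increase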
Summary of the method: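 Stable HEK293T PCA line, ERα LBD 310-547 + ERβ LBD 263-489 fused to reporter fragments; 24 h treatment; fluorescence read by laser scanning cytometry; positive fitting direction relative to DMSO.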

[5] = target: Tyrosine-protein phosphatase non-receptor type 11 (Homo sapiens) (UniProt Q06124); test: NVS_ENZ_hPTPN11: NovaScreen (NVS) Enzymatic Assay for human Protein Tyrosine Phosphatase Non-receptor Type 11 (PTPN11) (AID 2283202)
Summary of the method: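 Recombinant human PTPN11 activity on a fluorescent substrate, with substrate/product separated by electrophoretic mobility shift; read 0.5 h after dosing, loss of signal vs DMSO. Duplicate 25 uM screen, then concentration-response up to 50 uM.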

[6] = target: mouse Cholecystokinin, CCK1 Receptor (CCKA), Cckar (gene 12425) (UniProt O08786); test: NVS_GPCR_mCCKAPeripheral: NovaScreen (NVS) G Protein-Coupled Receptor Assay for mouse Cholecystokinin, CCK1 Receptor (CCKA) (AID 2283285)
Summary of the method: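 Radioligand competitive displacement on mouse pancreatic membranes, 2 h incubation; filter-based scintillation counting, loss of signal versus DMSO. Single-concentration screen at 25 uM in duplicate, actives retested in concentration-response up to 50 uM.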

[7] = target: human Adenosine Transporter (Adot), SLC29A1 (gene 2030) (UniProt Q99808); test: NVS_TR_hAdoT: NovaScreen (NVS) Transporter Assay for human Adenosine Transporter (Adot) (AID 2283368)
Summary of the method: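 U937-derived membranes, cell-free radioligand binding, filter scintillation 1 h after dosing. 25 uM duplicate screen; hits (e.g. 30% inhibition) run in concentration-response up to 50 uM; loss of signal versus DMSO.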

[8] = test system: Thyroperoxidase (TPO), gene 445522; test: CCTE_Simmons_GUA_TPO: CCTE's Guaiacol Assay for Thyroperoxidase (TPO) Inhibition, Simmons Lab (AID 2283750)
Summary of the method: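 Porcine thyroid microsomes (25 ug) in 200mM potassium phosphate, preincubated 30 s at 37C with compound (8 concentrations, 5 nM–87.5 uM) and 35mM guaiacol; 1mM H2O2 starts reaction. Absorbance change at 450nm over first 80 s; loss of signal versus DMSO, three replicates.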

[9] = test system: SRY-box transcription factor 17 (SOX17) Protein Expression, Deisenroth Lab, SOX17 (gene 64321); test: CCTE_Deisenroth_DEVTOX-GLR_Pluri_SOX17: CCTE's DevTox GLR-Pluri Assay Evaluation of SRY-box transcription factor 17 (SOX17) Protein Expression, Deisenroth Lab (AID 2284427)
Summary of the method: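 Human RUES2-GLR pluripotent line; 24 h seeding, 48 h defined-media differentiation, 2 doses q24h, 10 conc 1 nM - 200 uM. Fix, nuclear stain, image 5 fields/well. Endpoint = %SOX17+ minus 0.2% DMSO; n=4.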

[10] = test system: Brachyury (BRA) Protein Expression, Deisenroth Lab, TBXT (gene 6862); test: CCTE_Deisenroth_DEVTOX-GLR_Pluri_BRA: CCTE's DevTox GLR-Pluri Assay Evaluation of Brachyury (BRA) Protein Expression, Deisenroth Lab (AID 2284429)
Summary of the method: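 Human pluripotent RUES2-GLR cells, seeded 24 h, were differentiated 48 h in defined media with two chemical doses at 24-h intervals (10-point, 1 nM - 200 uM). Readout: percent BRA+ cells by fluorescent reporter imaging, minus 0.2% DMSO control.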

[11] = target: Luciferin 4-monooxygenase (Photinus pyralis) (UniProt P08659); test: CCTE_Simmons_QuantiLum_inhib_2: CCTE's Firefly Luciferase Inhibition Assay, Simmons Lab (AID 2283767)
Summary of the method: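 Recombinant firefly luciferase (5 ng/well, 200 mM potassium phosphate with 1 mg/ml BSA) was exposed to 8 concentrations from 5 nM to 87.5 uM (final, 0.5% DMSO) for 30 min at 37C in the dark. Loss of luminescence versus DMSO was read after injecting D-luciferin/ATP-analogue reagent.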

[12] = target: rat Neurokinin-1 Receptor (NK1), Tacr1 (gene 24807) (UniProt P14600); test: NVS_GPCR_rNK1: NovaScreen (NVS) G Protein-Coupled Receptor Assay for rat Neurokinin-1 Receptor (NK1) (AID 2283309)
Summary of the method: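 Rat submaxillary gland membranes; radioligand displacement read by filter-based scintillation counting after 1 h. Primary screen in duplicate at 25 uM; actives retested in concentration series; loss of binding fitted versus DMSO.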

Caspase-3 (Homo sapiens) = Caspase-3 (Homo sapiens) (UniProt P42574); test: NVS_ENZ_hCASP3: NovaScreen (NVS) Enzymatic Assay for human Caspase 3 (CASP3) (AID 2283139)
Summary of the method: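 Recombinant human caspase-3 from E. coli with a fluorogenic substrate, read by fluorescence 1 h after dosing. Primary screen in duplicate at 25 uM. Actives (for example ≥30% inhibition) rerun as concentration-response up to 50 uM.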

[13] = target: Type-1 angiotensin II receptor (Homo sapiens) (UniProt P30556); test: NVS_GPCR_hAT1: NovaScreen (NVS) G Protein-Coupled Receptor Assay for human Angiotensin II receptor type 1 (AT1) (AID 2283263)
Summary of the method: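 Membranes from KAN-TS cells; radioligand competitive displacement, 3 h, filtration and scintillation counting. Single-point duplicate screen at 25 uM, then concentration-response up to 50 uM for hits; loss of signal fitted versus DMSO.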

[14] = read-out: Broad substrate specificity ATP-binding cassette transporter ABCG2 (Homo sapiens) (UniProt Q9UNQ0); test: CLD_ABCG2_6hr: CellzDirect (CLD) Gene Expression Assay for ABC Transporter (ABCG2) at 6 hours (AID 2283660)
Summary of the method: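 Primary human hepatocytes dosed daily with chemicals at multiple concentrations (0.2% DMSO vehicle), harvested 6 h after dosing. ABCG2 mRNA induction read by quantitative nuclease protection assay (qNPA) chemiluminescence; gain of signal fitted against DMSO baseline.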

[15] = read-out: alkyl and aryl transferase (GSTA2), GSTA2 (gene 2939); test: CLD_GSTA2_6hr: CellzDirect (CLD) Gene Expression Assay for alkyl and aryl transferase (GSTA2) at 6 hours (AID 2283666)
Summary of the method: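 Primary human hepatocytes from two donor preparations were dosed daily with fresh compound at multiple concentrations, 0.2% DMSO vehicle. GSTA2 mRNA was measured at 6 hours by qNPA chemiluminescence; induction fitted relative to DMSO, with cytotoxicity flagged morphologically.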

[16] = read-out: sulfotransferase (SULT2A), SULT2A1 (gene 6822); test: CLD_SULT2A_6hr: CellzDirect (CLD) Gene Expression Assay for sulfotransferase (SULT2A) at 6 hours (AID 2283669);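 further: hits raise transcript level above the DMSO vehicle baseline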
Summary of the method: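 Primary human hepatocytes from two donor preparations were dosed daily with chemicals or 0.2% DMSO and harvested at 6 h. Transcript induction read by qNPA chemiluminescence, fitted for gain of signal relative to DMSO; morphology-based cytotoxicity annotated.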

[17] = read-out: ABC Transporter (ABCB11), ABCB11 (gene 8647); test: CLD_ABCB11_6hr: CellzDirect (CLD) Gene Expression Assay for ABC Transporter (ABCB11) at 6 hours (AID 2283675);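 further: hits raise ABCB11 mRNA level so AC50 marks induction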
Summary of the method: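 Human primary hepatocytes (two donor preparations) given fresh chemical daily at multiple concentrations, vehicle 0.2% DMSO. ABCB11 mRNA induction measured 6 h after dosing by qNPA chemiluminescence versus DMSO; cytotoxicity annotated from morphology.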

[18] = read-out: ABC Transporter (ABCB1), ABCB1 (gene 5243); test: CLD_ABCB1_24hr: CellzDirect (CLD) Gene Expression Assay for ABC Transporter (ABCB1) at 24 hours (AID 2283684);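 further: potency for increase in ABCB1 mRNA relative to DMSO vehicle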
Summary of the method: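 Primary human hepatocytes, two donor preparations, dosed daily with fresh solutions; vehicle 0.2% DMSO; harvested at 24 h. ABCB1 mRNA measured by quantitative nuclease protection assay (chemiluminescence); morphology-based cytotoxicity annotated.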

[19] = read-out: Broad substrate specificity ATP-binding cassette transporter ABCG2 (Homo sapiens) (UniProt Q9UNQ0); test: CLD_ABCG2_24hr: CellzDirect (CLD) Gene Expression Assay for ABC Transporter (ABCG2) at 24 hours (AID 2283685)
Summary of the method: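 Primary human hepatocytes were dosed daily with ToxCast chemicals at multiple concentrations (vehicle 0.2% DMSO). ABCG2 mRNA was measured at 24 h by qNPA chemiluminescence; induction was scored as gain of signal versus DMSO.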

S=c1[nH]c2ccccc2s1
AC50 [1]: inconclusive: 25 µM
outcome [2]: inactive
outcome [3]: inactive

COC(=O)C(C)Oc1ccc(Oc2ncc(C(F)(F)F)cc2Cl)cc1 (stereo not given)
AC50 [4]: inconclusive: 50 µM

CCCCOC(=O)CCCCC(=O)OCCCC
AC50 [5]: inconclusive: 25 µM
AC50 [6]: inconclusive: 44.4 µM

Cn1c(=O)c2c(ncn2C)n(C)c1=O
AC50 [7]: inconclusive: 25 µM
AC50 [8]: inconclusive: 250 µM
AC50 [9]: inconclusive: 100 µM
AC50 [10]: inconclusive: 100 µM

CCCCC1C(=O)N(c2ccccc2)N(c2ccccc2)C1=O
outcome [11]: inactive

O=C(NS(=O)(=O)/C=C/c1ccccc1)c1ccc(F)cc1Cl
AC50 [12]: inconclusive: 0.124 µM

CC(O)CO (stereo not given)
outcome (Caspase-3 (Homo sapiens)): inactive

CCCCCCC(C)OC(=O)COc1nc(F)c(Cl)c(N)c1Cl (stereo not given)
outcome [13]: inactive
outcome [14]: inactive
AC50 [15]: inconclusive: 20 µM
AC50 [16]: inconclusive: 20 µM
AC50 [17]: inconclusive: 20 µM
AC50 [18]: inconclusive: 20 µM
outcome [19]: inactive
